According to the supplement of paper PMC10331698:
± gives the standard deviation of the averaged measurements. Most entries show no effect beyond the scatter of the controls.

Legend:
Assay in all cases: level (log10 ratio to DMSO vehicle control); higher = higher biomarker level / cell amount than vehicle control
Hexafluoroamylene glycol = compound: OCC(F)(F)C(F)(F)C(F)(F)CO [Hexafluoroamylene glycol]; conditions: 2200 nM; in DMSO
Experimental: (§1)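 BioMAP Diversity Plus panel of 12 human primary cell co-culture systems (3C, 4H, LPS, SAg, BT, BF4T, BE3C, CASM3C, HDF3CGF, KF3CT, MyoF, Mphg). Compounds were added 1 h before stimulation and left for 24 h (MyoF 48 h; BT 72 h for soluble read-outs or 6 d for IgG). Biomarkers were read by ELISA, cytotoxicity by SRB, PBMC viability and proliferation by Alamar Blue. Each well value was divided by the mean of 8 DMSO control wells on the same plate and log10 transformed; duplicate blinded samples were tested at 4 concentrations.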

Perfluoro-1-iodohexane = compound: FC(F)(F)C(F)(F)C(F)(F)C(F)(F)C(F)(F)C(F)(F)I [Perfluoro-1-iodohexane]; conditions: in DMSO
Experimental: as §1

[1] = compound: O=C(O)C=C(C(F)(F)F)C(F)(F)F [3,3-Bis(trifluoromethyl)-2-propenoic acid]; conditions: in DMSO
Experimental: as §1

[2] = compound: O=C(Cl)C(F)(F)C(F)(F)C(F)(F)C(=O)Cl [Hexafluoroglutaryl chloride]; conditions: 2200 nM; in DMSO
Experimental: as §1

[3] = compound: O=S(=O)(O)C(F)(F)C(F)(F)C(F)(F)C(F)(F)C(F)(F)C(F)(F)F [Perfluorohexanesulfonic acid]; conditions: 2200 nM; in DMSO
Experimental: as §1

[4] = compound: FC(F)(I)C(F)(F)C(F)(F)C(F)(F)C(F)(F)C(F)(F)I [1,6-Diiodoperfluorohexane]; conditions: 2200 nM; in DMSO
Experimental: as §1

[5] = compound: C=CC(=O)OCCC(F)(F)C(F)(F)C(F)(F)C(F)(F)F [2-(Perfluorobutyl)ethyl acrylate]; conditions: 2200 nM; in DMSO
Experimental: as §1

[6] = compound: C=CC(=O)OCCC(F)(F)C(F)(F)C(F)(F)C(F)(F)C(F)(F)C(F)(F)C(F)(F)C(F)(F)F [8:2 Fluorotelomer acrylate]; conditions: 2200 nM; in DMSO
Experimental: as §1

[7] = compound: FC(F)(F)C(F)(C(F)(F)F)C(F)(F)C(F)(F)CC1CO1 [3-(Perfluoro-3-methylbutyl)-1,2-propenoxide]; conditions: in DMSO
Experimental: as §1

[8] = compound: O=C(O)C(F)(F)C(F)(F)C(F)(F)C(F)(F)C(F)(F)C(F)(F)C(F)(F)C(F)(F)C(F)(F)C(F)(F)C(F)(F)C(F)(F)C(F)(F)F [Perfluorotetradecanoic acid]; conditions: in DMSO
Experimental: as §1

[9] = compound: OCCCC(F)(F)C(F)(F)C(F)(F)C(F)(F)C(F)(F)C(F)(F)C(F)(F)F [7:3 Fluorotelomer alcohol]; conditions: 2200 nM; in DMSO
Experimental: as §1

[10] = compound: O=S(=O)(O)CCC(F)(F)C(F)(F)C(F)(F)C(F)(F)F [4:2 Fluorotelomer sulfonic acid]; conditions: 2200 nM; in DMSO
Experimental: as §1

[11] = compound: C=CC(=O)OCC(F)(F)C(F)(F)C(F)(F)COC(=O)C=C [1H,1H,5H,5H-Perfluoro-1,5-pentanediol diacrylate]; conditions: 2200 nM; in DMSO
Experimental: as §1

Row | Test System | level (log10) (Hexafluoroamylene glycol) | level (log10) (Perfluoro-1-iodohexane; 2200 nM) | level (log10) (Perfluoro-1-iodohexane; 6700 nM) | level (log10) (Perfluoro-1-iodohexane; 20000 nM) | level (log10) (Perfluoro-1-iodohexane; 60000 nM) | level (log10) ([1]; 2200 nM) | level (log10) ([1]; 6700 nM) | level (log10) ([1]; 20000 nM) | level (log10) ([1]; 60000 nM) | level (log10) [2] | level (log10) [3] | level (log10) [4] | level (log10) [5] | level (log10) [6] | level (log10) ([7]; 740 nM) | level (log10) ([7]; 2200 nM) | level (log10) ([8]; 740 nM) | level (log10) ([8]; 2200 nM) | level (log10) [9] | level (log10) [10] | level (log10) [11]
1 | lMphg:CD106/VCAM-1 | -0.0095 ± 0.0021 | 0.0125 ± 0.0078 | 0.0085 ± 0.032 | -0.0035 ± 0.018 | -0.003 ± 0.0099 | -0.014 ± 0.0099 | -0.0205 ± 0.005 | -0.025 ± 0.0099 | -0.0935 ± 0.0064 | -0.0045 ± 0.0021 | -0.012 ± 0.02 | -0.0175 ± 0.025 | -0.0135 ± 0.013 | -0.002 ± 0.0099 | -0.0135 ± 0.032 | 0.0025 ± 0.016 | -0.0075 ± 0.016 | -0.0275 ± 0.029 | -0.0135 ± 0.033 | -0.002 ± 0.011 | -0.0085 ± 0.019
2 | BE3C:IL-1alpha | -0.005 ± 0.02 | -0.006 ± 0.017 | -0.0155 ± 0.013 | -0.009 ± 0.0014 | -0.0195 ± 0.013 | 0.015 ± 0.021 | 0.012 ± 0.02 | 0.0005 ± 0.0092 | 0.001 ± 0.023 | 0.0005 ± 0.0092 | 0.0375 ± 0.061 | 0.0195 ± 0.035 | 0.007 ± 0.027 | 0.001 ± 0.03 | 0.0235 ± 0.005 | 0.0085 ± 0.022 | 0.012 ± 0.011 | 0.007 ± 0.011 | -0.006 ± 0.055 | 0.003 ± 0.0085 | 0.016 ± 0.0042
3 | lMphg:SRB | -0.015 ± 0.027 | -0.004 ± 0.013 | -0.0055 ± 0.00071 | -0.0025 ± 0.0035 | 0.0035 ± 0.0078 | -0.021 ± 0.0085 | -0.0145 ± 0.013 | -0.0205 ± 0.0021 | -0.0205 ± 0.028 | -0.0085 ± 0.0064 | -0.008 ± 0.0042 | -0.0065 ± 0.00071 | 0.008 ± 0.0057 | 0.002 ± 0.0099 | -0.0055 ± 0.0064 | -0.003 ± 0.0028 | -0.002 ± 0.0028 | -0.0085 ± 0.0021 | -0.0075 ± 0.0078 | -0.0105 ± 0.015 | -0.0065 ± 0.016
4 | CASM3C:CCL2/MCP-1 | 0.013 ± 0.025 | 0.011 ± 0.014 | 0.006 ± 0.0099 | -0.0085 ± 0.019 | 0.0015 ± 0.049 | -0.0145 ± 0.023 | -0.03 ± 0.0028 | -0.0425 ± 0.00071 | -0.0465 ± 0.022 | 0.0025 ± 0.028 | -0.017 ± 0.038 | 0.017 ± 0.024 | 0.009 ± 0.023 | -0.006 ± 0.018 | 0.002 | 0.001 ± 0.0071 | -0.094 ± 0.2 | -0.086 ± 0.12 | -0.0065 ± 0.013 | 0.0155 ± 0.036 | 0.0115 ± 0.03
5 | BE3C:CD54/ICAM-1 | -0.0025 ± 0.0021 | -0.003 ± 0.027 | -0.006 ± 0.0014 | -0.0125 ± 0.015 | -0.005 ± 0.014 | 0.007 ± 0.02 | -0.004 ± 0.017 | 0.0025 ± 0.0021 | 0.031 ± 0.04 | 0.0215 ± 0.0035 | 0.008 ± 0.013 | 0.0045 ± 0.016 | 0.0015 ± 0.021 | 0.005 ± 0.042 | -0.022 ± 0.042 | -0.013 ± 0.013 | 0.012 ± 0.013 | -0.003 ± 0.017 | 0.004 ± 0.011 | -0.006 ± 0.0042 | 0.002
6 | BF4T:CXCL8/IL-8 | 0.009 ± 0.011 | 0.014 ± 0.011 | 0.0175 ± 0.021 | -0.009 ± 0.058 | 0.016 ± 0.058 | -0.003 ± 0.011 | -0.0135 ± 0.022 | -0.022 ± 0.0099 | 0.0345 ± 0.05 | 0.026 ± 0.059 | 0.003 ± 0.024 | 0.0175 ± 0.026 | 0.011 ± 0.04 | -0.0075 ± 0.042 | 0.0185 ± 0.0035 | 0.005 ± 0.0099 | 0.0355 ± 0.0064 | 0.021 ± 0.023 | 0.058 ± 0.047 | 0.011 ± 0.035 | -0.003 ± 0.035
7 | LPS:sTNF-alpha | -0.008 ± 0.03 | -0.005 ± 0.011 | 0.0005 ± 0.022 | -0.008 ± 0.016 | 0.0075 ± 0.029 | -0.0045 ± 0.013 | -0.0305 ± 0.042 | 0.0195 ± 0.023 | -0.0025 ± 0.035 | 0.0465 ± 0.087 | 0.008 ± 0.0042 | -0.013 ± 0.034 | -0.0105 ± 0.021 | -0.019 ± 0.054 | -0.0055 ± 0.00071 | -0.006 ± 0.0057 | -0.011 ± 0.0028 | -0.016 ± 0.011 | -0.0165 ± 0.054 | -0.0085 ± 0.012 | 0.003 ± 0.013
8 | LPS:CCL2/MCP-1 | 0.013 ± 0.018 | -0.013 ± 0.03 | -0.0025 ± 0.005 | -0.009 ± 0.0014 | 0.0015 ± 0.032 | 0.002 ± 0.03 | 0.0015 ± 0.00071 | -0.0145 ± 0.0035 | -0.02 ± 0.03 | 0.0135 ± 0.0092 | -0.002 ± 0.037 | 0.008 ± 0.0057 | 0.0015 ± 0.025 | 0.007 ± 0.025 | 0.015 ± 0.037 | -0.009 ± 0.0085 | 0.039 ± 0.023 | 0.002 ± 0.0057 | -0.0105 ± 0.019 | 0.011 ± 0.011 | -0.0055 ± 0.035
9 | 4H:CD106/VCAM-1 | 0.018 ± 0.021 | 0.0255 ± 0.012 | 0.013 ± 0.03 | 0.01 ± 0.034 | 0.014 ± 0.068 | -0.0785 ± 0.046 | -0.12 ± 0.037 | -0.143 ± 0.017 | -0.25 ± 0.028 | 0.0075 ± 0.019 | -0.0265 ± 0.028 | 0.0075 ± 0.03 | -0.0055 ± 0.018 | 0.016 ± 0.0042 | 0.0285 ± 0.044 | 0.013 ± 0.013 | -0.02 ± 0.075 | -0.052 ± 0.081 | 0.0125 ± 0.03 | -0.002 ± 0.0099 | 0.0205 ± 0.042
10 | 3C:SRB | -0.0175 ± 0.018 | 0.0035 ± 0.005 | -0.0035 ± 0.00071 | -0.0155 ± 0.00071 | -0.0155 ± 0.0021 | 0.0135 ± 0.028 | 0.0105 ± 0.019 | -0.005 ± 0.025 | -0.062 ± 0.03 | 0.003 ± 0.021 | -0.0175 ± 0.032 | 0.0185 ± 0.028 | 0.003 ± 0.016 | -0.005 ± 0.0057 | 0.014 ± 0.027 | 0.0075 ± 0.016 | -0.026 ± 0.0042 | -0.0295 ± 0.0064 | 0.002 ± 0.013 | -0.013 ± 0.0099 | -0.0035 ± 0.021
11 | BE3C:CXCL9/MIG | -0.0055 ± 0.00071 | -0.001 ± 0.0057 | 0.0085 ± 0.0035 | -0.002 ± 0.0071 | -0.0035 ± 0.018 | 0.0035 ± 0.012 | -0.007 ± 0.014 | -0.007 ± 0.0057 | 0.005 ± 0.023 | 0.0135 ± 0.011 | 0.0085 ± 0.015 | -0.0035 ± 0.012 | -0.006 ± 0.013 | 0.0025 ± 0.0092 | -0.0055 ± 0.0064 | 0 ± 0.014 | -0.0005 ± 0.0092 | 0.001 ± 0.0071 | 0.0005 ± 0.0021 | -0.0025 ± 0.00071 | -0.01 ± 0.016
12 | MyoF:SRB | -0.0005 ± 0.0078 | 0 ± 0.0057 | -0.0405 ± 0.05 | -0.263 ± 0.16 | -0.712 ± 0.15 | 0.0105 ± 0.013 | 0.0005 ± 0.012 | -0.005 ± 0.0014 | -0.024 ± 0.0071 | 0 ± 0.0028 | 0.0015 ± 0.00071 | 0.0035 ± 0.0035 | 0.01 ± 0.023 | 0.0055 ± 0.0078 | 0.002 ± 0.0057 | -0.0035 ± 0.005 | -0.0015 ± 0.0021 | 0.005 ± 0.0042 | 0.013 ± 0.0014 | -0.001 ± 0.0042 | -0.007 ± 0.0057
